Values quoted from earlier work in patent publication US20050186271A1, “Process for dispersing a fluid in a mass of solid particles” (priority 2004, published 2005).
Counter-ions that a name gives are not always drawn.

Amount that dissolves in 1 mL water: 1 g
Compound: CN(C)CCOC(c1ccccc1)c1ccccc1 [Diphenhydramine HCl]
